Holding throughout (assay): co-IP
Assay [1] addresses T1, IFT25-HA-GFP (C. reinhardtii) (UniProt B8LIX8).
T1 sequence: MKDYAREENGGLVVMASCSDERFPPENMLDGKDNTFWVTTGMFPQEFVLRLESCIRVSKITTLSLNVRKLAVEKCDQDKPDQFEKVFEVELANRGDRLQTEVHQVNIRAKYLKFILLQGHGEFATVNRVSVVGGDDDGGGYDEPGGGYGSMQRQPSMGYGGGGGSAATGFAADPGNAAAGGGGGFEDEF

The target in assay [2] is IFT27-HA-GFP (C. reinhardtii).
The target of assay [3] is IFT27^S30N-HA-GFP (C. reinhardtii).
The target in assay [4] is IFT27^S79L-HA-GFP (C. reinhardtii).

Binding data for three molecules are collected here from publication doi:10.1101/2022.02.06.479262.

Results are given in words; binding and its absence hold for the method and conditions named. Binding seen in cells or lysates may run through a third protein. A result given as binding can be weak or reduced; the word gives no strength. For some assays here: Where a sequence is shown, tags or fusion partners need not be part of it.

In the case of “IFT38 (C. reinhardtii (endogenous in cilia))”, in assay [1], the binding entry is reported as “binds”. The same measure, in the same setting: the value for “IFT70 (C. reinhardtii (endogenous in cilia))” was “binds”.

B1: IFT43 (protein, UniProt A8HYP5 1-272)
chain: MDDDAPKAAPKAGRRAARTANTWGDDSAAPPEPQKGGFGLDSGFGGGGGSPRGNAFGAEDSAPPKHVASTNFAPSGDDEPAPAPSRQRTGDASGDRPSRGGAPPSRPPPAEILGEDSKKFVGVSRRKQEQLARGDDEVSRKNLKYETLTAGVDGIMEIPELEEEGREDLSNIVAEAPKVRTNKVQGMEELEEDMHYKLPAMDDRDIDLSLLTAVLCSSEQVAEAEDPWDPDIVLTEVASAINAEREKAEGGEAPDDMGGMRDEQGMPMPIKL
B1: the binding entry in assay [2], in assay [3] and in assay [4] was “binds” throughout.
